PubChem BioAssay AID743121 – NCATS, 2013
The whole screen tested about 26,000 reagents; this is a random part of them. 167 of all reagents (0.63%) were called active. 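Calls are per gene from RSA p-values that are not deposited; an individual active-marked siRNA can sensitise only weakly.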 Unmarked entries are inactive. The numbers tell different reagents against one gene apart. Further read-outs or replicates are left out here.

Screen: 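Genes whose silencing strengthens cell killing by camptothecin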 (primary screen)
System: MDA-MB-231 cells, a human breast cancer line
Reagent: single siRNA against human genes, 20 nM siRNA (0.8 pmol per well)
Duration: 120 h (drug added 48 h after transfection, read 72 h later)
Treatment: camptothecin 20 nM (about EC30) for 72 h; vehicle 0.1% DMSO in parallel plates
Measured: 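CellTiter-Glo ATP signal, scaled to control siRNA as percent viability; sensitisation given as log2 of untreated divided by camptothecin-treated viability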
Reading the numbers: log2 vehicle/camptothecin viability: higher = stronger sensitisation to camptothecin; viability with camptothecin: higher = more viable cells
Units: viability with camptothecin in % of control
Hit rule: 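Active genes have an RSA gene-level p-value below 0.001, computed from the ratios of their separate siRNAs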

GRM2 #1
- log2 vehicle/camptothecin viability: -0.319
- viability with camptothecin: 60.6

GRM2 #2
- log2 vehicle/camptothecin viability: -0.275
- viability with camptothecin: 71.4

GRM2 #3
- log2 vehicle/camptothecin viability: -0.151
- viability with camptothecin: 73.8

GRM2 #4
- log2 vehicle/camptothecin viability: 0.131
- viability with camptothecin: 96.6

CHD3 #1
- log2 vehicle/camptothecin viability: 0.152
- viability with camptothecin: 69.4

CHD3 #2
- log2 vehicle/camptothecin viability: -0.186
- viability with camptothecin: 95.8

CHD3 #3
- log2 vehicle/camptothecin viability: -0.619
- viability with camptothecin: 88.7

CHRM4 #1
- log2 vehicle/camptothecin viability: -0.186
- viability with camptothecin: 99.1

CHRM4 #2
- log2 vehicle/camptothecin viability: -0.485
- viability with camptothecin: 57.2

CHRM4 #3
- log2 vehicle/camptothecin viability: -0.539
- viability with camptothecin: 60.8

CHRM4 #4
- log2 vehicle/camptothecin viability: -0.078
- viability with camptothecin: 105

PPP1R12C #1
- log2 vehicle/camptothecin viability: 0.276
- viability with camptothecin: 50.1

PPP1R12C #2
- log2 vehicle/camptothecin viability: -0.12
- viability with camptothecin: 46.1

PPP1R12C #3
- log2 vehicle/camptothecin viability: 1.05
- viability with camptothecin: 7.84

PPP1R12C #4
- log2 vehicle/camptothecin viability: 0.00758
- viability with camptothecin: 50.4

NCOR1 #1
- log2 vehicle/camptothecin viability: -0.272
- viability with camptothecin: 73.5

NCOR1 #2
- log2 vehicle/camptothecin viability: -0.148
- viability with camptothecin: 86.8

NCOR1 #3
- log2 vehicle/camptothecin viability: -0.816
- viability with camptothecin: 49.7

GRIN2D #1
- log2 vehicle/camptothecin viability: 0.266
- viability with camptothecin: 52.4

GRIN2D #2
- log2 vehicle/camptothecin viability: 0.126
- viability with camptothecin: 83.5

GRIN2D #3
- log2 vehicle/camptothecin viability: -0.176
- viability with camptothecin: 96.2

GRIN2D #4
- log2 vehicle/camptothecin viability: -0.626
- viability with camptothecin: 44.6

SETDB2 #1
- log2 vehicle/camptothecin viability: -0.206
- viability with camptothecin: 93

SETDB2 #2
- log2 vehicle/camptothecin viability: -0.00204
- viability with camptothecin: 86.5

SETDB2 #3
- log2 vehicle/camptothecin viability: 0.0208
- viability with camptothecin: 99.9

SETDB2 #4
- log2 vehicle/camptothecin viability: -0.236
- viability with camptothecin: 84.5

PIH1D1 #1
- log2 vehicle/camptothecin viability: 1.6
- viability with camptothecin: 16.6

PIH1D1 #2
- log2 vehicle/camptothecin viability: -0.045
- viability with camptothecin: 55.5

PIH1D1 #3
- log2 vehicle/camptothecin viability: 0.0523
- viability with camptothecin: 47

PIH1D1 #4
- log2 vehicle/camptothecin viability: -0.137
- viability with camptothecin: 18.3

CARM1 #1
- log2 vehicle/camptothecin viability: 0.204
- viability with camptothecin: 56

CARM1 #2
- log2 vehicle/camptothecin viability: -0.127
- viability with camptothecin: 87.5

CARM1 #3
- log2 vehicle/camptothecin viability: 0.101
- viability with camptothecin: 116

CARM1 #4
- log2 vehicle/camptothecin viability: 0.872
- viability with camptothecin: 30.9

TRAF4 #1
- log2 vehicle/camptothecin viability: -0.371
- viability with camptothecin: 32.2

TRAF4 #2
- log2 vehicle/camptothecin viability: 0.235
- viability with camptothecin: 41.4

TRAF4 #3
- log2 vehicle/camptothecin viability: 0.72
- viability with camptothecin: 26.2

TRAF4 #4
- log2 vehicle/camptothecin viability: 0.291
- viability with camptothecin: 42.5

IPO7 #1
- log2 vehicle/camptothecin viability: -0.389
- viability with camptothecin: 84.1

IPO7 #2
- log2 vehicle/camptothecin viability: -0.444
- viability with camptothecin: 83.7

IPO7 #3
- log2 vehicle/camptothecin viability: 0.277
- viability with camptothecin: 36.8

TMPRSS11D #1
- log2 vehicle/camptothecin viability: 0.683
- viability with camptothecin: 30.8

TMPRSS11D #2
- log2 vehicle/camptothecin viability: -0.0452
- viability with camptothecin: 50.1

TMPRSS11D #3
- log2 vehicle/camptothecin viability: -0.482
- viability with camptothecin: 71.2

TMPRSS11D #4
- log2 vehicle/camptothecin viability: 0.232
- viability with camptothecin: 61.9

8 entries from above, sorted by “log2 vehicle/camptothecin viability”, highest first:
CARM1 #4
- log2 vehicle/camptothecin viability: 0.872
- viability with camptothecin: 30.9

TRAF4 #3
- log2 vehicle/camptothecin viability: 0.72
- viability with camptothecin: 26.2

TRAF4 #4
- log2 vehicle/camptothecin viability: 0.291
- viability with camptothecin: 42.5

TRAF4 #2
- log2 vehicle/camptothecin viability: 0.235
- viability with camptothecin: 41.4

CARM1 #1
- log2 vehicle/camptothecin viability: 0.204
- viability with camptothecin: 56

CARM1 #3
- log2 vehicle/camptothecin viability: 0.101
- viability with camptothecin: 116

CARM1 #2
- log2 vehicle/camptothecin viability: -0.127
- viability with camptothecin: 87.5

TRAF4 #1
- log2 vehicle/camptothecin viability: -0.371
- viability with camptothecin: 32.2
